Values from PubChem BioAssay AID1259405 (NCATS, 2018).

Purpose: 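Mouse-designed siRNAs used to find CHO productivity engineering targets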 (primary screen)
Cell system: Chinese hamster CHO-K1 ovary cells with stable secreted eGFP expression
Reagents: single siRNA against mouse genes, 0.8 pmol siRNA per well (2 µl of 400 nM stock)
Duration: 3 days
Detection: 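Per-well intracellular GFP measured by laser scanning cytometry, plus viability from ATP luminescence, each relative to plate median of non-targeting control wells, in %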
Scale: GFP, % of control: higher = more GFP per well, higher productivity; viability (ATP), % of control: higher = more viable cells (more ATP)
Active means: 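a knock-down is called active if GFP reaches 120% or more of non-targeting control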
The deposit covers about 50,000 reagents; below is a part drawn at random. Over the whole deposit, about 4,000 (8%) got an active call. 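Mouse siRNA library applied to hamster cells; one well for each siRNA.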 Reagent sequences are not shown.

gene knocked down,PubChem SID,"GFP, % of control","viability (ATP), % of control",Outcome
Slc45a1 (GeneID 242773),SID363547761,49.1,86.6,inactive
Slc45a1 (GeneID 242773),SID363558530,74.9,94.5,inactive
Slc45a1 (GeneID 242773),SID363560288,90.5,65.1,inactive
Ccnd2 (GeneID 12444),SID363573446,92.3,73,inactive
Ccnd2 (GeneID 12444),SID363588685,89.5,97.7,inactive
Cdca7l (GeneID 217946),SID363547027,72.1,44.9,inactive
Cdca7l (GeneID 217946),SID363549839,79,94.2,inactive
Cdca7l (GeneID 217946),SID363587893,130,119,active
Rbm47 (GeneID 245945),SID363547071,94.8,76.5,inactive
Rbm47 (GeneID 245945),SID363549883,91.9,83.4,inactive
Rbm47 (GeneID 245945),SID363587937,89.9,114,inactive
Pcdhga7 (GeneID 93715),SID363541873,59.7,74.8,inactive
Pcdhga7 (GeneID 93715),SID363553465,35.5,58,inactive
Pcdhga7 (GeneID 93715),SID363566789,30.1,51.2,inactive
Emg1 (GeneID 14791),SID363554026,62.3,59.3,inactive
Emg1 (GeneID 14791),SID363561983,98.4,105,inactive
Emg1 (GeneID 14791),SID363565721,59.2,42.6,inactive
Mtmr10 (GeneID 233315),SID363547869,63.4,58.8,inactive
Mtmr10 (GeneID 233315),SID363558638,123,46.2,active
Mtmr10 (GeneID 233315),SID363560396,78.6,105,inactive
Myoz3 (GeneID 170947),SID363572207,95.4,56.6,inactive
Myoz3 (GeneID 170947),SID363573967,56.3,51.6,inactive
Spmap1 (GeneID 72215),SID363540776,104,109,inactive
Spmap1 (GeneID 72215),SID363543227,83.5,86.5,inactive
Spmap1 (GeneID 72215),SID363552720,84.7,38.2,inactive
Ctnnbl1 (GeneID 66642),SID363550224,78,85.2,inactive
Ctnnbl1 (GeneID 66642),SID363564733,44,43.8,inactive
Ctnnbl1 (GeneID 66642),SID363588278,85.8,108,inactive
Chmp2b (GeneID 68942),SID363540751,133,161,active
Chmp2b (GeneID 68942),SID363543202,70.6,102,inactive
Chmp2b (GeneID 68942),SID363552695,56.5,98.7,inactive

Called active, of those listed so far:
gene knocked down,PubChem SID,"GFP, % of control","viability (ATP), % of control",Outcome
Cdca7l (GeneID 217946),SID363587893,130,119,active
Mtmr10 (GeneID 233315),SID363558638,123,46.2,active
Chmp2b (GeneID 68942),SID363540751,133,161,active

Next results:
gene knocked down,PubChem SID,"GFP, % of control","viability (ATP), % of control",Outcome
Cog8 (GeneID 97484),SID363581870,106,120,inactive
Cog8 (GeneID 97484),SID363589364,87.8,79.4,inactive
Slc25a42 (GeneID 73095),SID363545549,136,65.4,active
Slc25a42 (GeneID 73095),SID363549062,94.9,64.1,inactive
Slc25a42 (GeneID 73095),SID363562868,59.2,70.4,inactive
Emc3 (GeneID 66087),SID363540552,100,105,inactive
Emc3 (GeneID 66087),SID363543003,63.4,84.8,inactive
Emc3 (GeneID 66087),SID363552496,106,108,inactive
Drg1 (GeneID 13494),SID363570311,133,124,active
Drg1 (GeneID 13494),SID363576647,121,120,active
Drg1 (GeneID 13494),SID363579815,54.7,70.3,inactive
Slc5a11 (GeneID 233836),SID363574712,71.4,66.8,inactive
Slc5a11 (GeneID 233836),SID363575768,119,94.7,inactive
Slc5a11 (GeneID 233836),SID363580344,55.5,63.4,inactive
Rps17 (GeneID 20068),SID363554082,87.9,91.3,inactive
Rps17 (GeneID 20068),SID363562039,46.2,50.6,inactive
Rps17 (GeneID 20068),SID363565777,55,44.7,inactive
Aoc1l1 (GeneID 243376),SID363544792,118,47.8,inactive
Aoc1l1 (GeneID 243376),SID363551120,84.6,83.8,inactive
Aoc1l1 (GeneID 243376),SID363557669,65.1,66.8,inactive
Rlim (GeneID 19820),SID363547522,7.15,54.1,inactive
Rlim (GeneID 19820),SID363558291,59.4,75.6,inactive
Rlim (GeneID 19820),SID363560049,85.6,95.2,inactive
Rpap2 (GeneID 231571),SID363546519,65.5,82.6,inactive
Rpap2 (GeneID 231571),SID363548275,54.2,73.9,inactive
Rpap2 (GeneID 231571),SID363560453,50.2,67.2,inactive
Tmem121b (GeneID 94047),SID363550355,72.6,100,inactive
Tmem121b (GeneID 94047),SID363564864,68.1,76.6,inactive
Tmem121b (GeneID 94047),SID363588409,94.8,114,inactive
Ugt1a7c (GeneID 394432),SID363545362,128,68.3,active
Ugt1a7c (GeneID 394432),SID363548875,72.8,77.7,inactive
Ugt1a7c (GeneID 394432),SID363562681,52.9,51.3,inactive
Sh2b3 (GeneID 16923),SID363540201,67.1,74.1,inactive
Sh2b3 (GeneID 16923),SID363541953,86.9,93.7,inactive
Sh2b3 (GeneID 16923),SID363566869,145,94.4,active
Slc5a9 (GeneID 230612),SID363547621,93.3,59.8,inactive
Slc5a9 (GeneID 230612),SID363558390,139,57.7,active
Slc5a9 (GeneID 230612),SID363560148,67.7,93.8,inactive
Nedd4l (GeneID 83814),SID363572540,74.9,55.9,inactive
Nedd4l (GeneID 83814),SID363577820,39.8,39.7,inactive
Nedd4l (GeneID 83814),SID363582044,91.2,104,inactive
Sncg (GeneID 20618),SID363554862,30.6,64.9,inactive
Sncg (GeneID 20618),SID363568309,65.7,83,inactive
Sncg (GeneID 20618),SID363586368,45,41.1,inactive
Lypd1 (GeneID 72585),SID363569186,79.3,123,inactive
Lypd1 (GeneID 72585),SID363583618,57.6,96.4,inactive
Xkrx (GeneID 331524),SID363542906,71.4,58.8,inactive
Xkrx (GeneID 331524),SID363546423,70.7,69.6,inactive
Xkrx (GeneID 331524),SID363548179,50.7,69.2,inactive
Lrriq4 (GeneID 68307),SID363542440,94.9,83.5,inactive
Lrriq4 (GeneID 68307),SID363551931,60,69.3,inactive
Lrriq4 (GeneID 68307),SID363559536,41.8,62.6,inactive
Lrfn3 (GeneID 233067),SID363544279,89.8,40.4,inactive
Lrfn3 (GeneID 233067),SID363550607,102,76.5,inactive
Lrfn3 (GeneID 233067),SID363557156,58.6,66.1,inactive
